Laboratory results: PubChem BioAssay AID743121 (NCATS, 2013)
Screen: 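Knock-downs that sensitise breast cancer cells to camptothecin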 (primary screen). Cell system: MDA-MB-231 cells, a human breast cancer line. Knock-down reagent: single siRNA against human genes, 20 nM siRNA (0.8 pmol per well). Time to read-out: 120 h (drug added 48 h after transfection, read 72 h later). Conditions: camptothecin 20 nM (about EC30) for 72 h; vehicle 0.1% DMSO in parallel plates. Measured: 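CellTiter-Glo ATP signal, scaled to control siRNA as percent viability; sensitisation given as log2 of untreated divided by camptothecin-treated viability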. Reading the numbers: log2 vehicle/camptothecin viability: higher = stronger sensitisation to camptothecin; viability with camptothecin and viability without drug: higher = more viable cells. Active means: 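Active genes have an RSA gene-level p-value below 0.001, computed from the ratios of their separate siRNAs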.
In all, the deposit lists about 26,000 reagents; this is a part drawn at random. 167 of them (0.63%) were called active. 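Calls are per gene from RSA p-values that are not deposited; an individual active-marked siRNA can sensitise only weakly.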 Reagents against one gene are numbered here.

Target gene | reagent | log2 vehicle/camptothecin viability | viability with camptothecin (% of control) | viability without drug (% of control) | outcome
PAK2 (GeneID 5062) | 1 | -0.336 | 76.6 | 60.6 | inactive
PAK2 (GeneID 5062) | 2 | -0.116 | 54.4 | 50.2 | inactive
PAK2 (GeneID 5062) | 3 | -0.176 | 96.8 | 85.6 | inactive
PAK2 (GeneID 5062) | 4 | -0.158 | 98.6 | 88.3 | inactive
HRH2 (GeneID 3274) | 1 | -0.496 | 65.7 | 46.6 | inactive
HRH2 (GeneID 3274) | 2 | -0.0226 | 97.7 | 96.2 | inactive
HRH2 (GeneID 3274) | 3 | -0.317 | 44 | 35.3 | inactive
HRH2 (GeneID 3274) | 4 | -0.228 | 116 | 99.3 | inactive
GPR45 (GeneID 11250) | 1 | -0.174 | 105 | 92.8 | inactive
GPR45 (GeneID 11250) | 2 | 0.00835 | 82 | 82.5 | inactive
GPR45 (GeneID 11250) | 3 | -0.282 | 70.1 | 57.6 | inactive
GPR45 (GeneID 11250) | 4 | -0.299 | 73.9 | 60.1 | inactive
SNX17 (GeneID 9784) | 1 | -0.493 | 58.7 | 41.7 | inactive
SNX17 (GeneID 9784) | 2 | -0.37 | 29.9 | 23.1 | inactive
SNX17 (GeneID 9784) | 3 | -0.0101 | 99.6 | 98.9 | inactive
SNX17 (GeneID 9784) | 4 | 0.105 | 84.2 | 90.5 | inactive
CKM (GeneID 1158) | 1 | 0.545 | 51.6 | 75.3 | inactive
CKM (GeneID 1158) | 2 | -0.328 | 68.6 | 54.6 | inactive
CKM (GeneID 1158) | 3 | -0.15 | 110 | 99.5 | inactive
CKM (GeneID 1158) | 4 | -0.343 | 90.7 | 71.5 | inactive
CCND1 (GeneID 595) | 1 | -0.254 | 108 | 90.7 | inactive
CCND1 (GeneID 595) | 2 | -0.149 | 84.2 | 75.9 | inactive
CCND1 (GeneID 595) | 3 | -0.158 | 74 | 66.3 | inactive
CCND1 (GeneID 595) | 4 | 0.0306 | 41.1 | 42 | inactive
CDX4 (GeneID 1046) | 1 | -0.0518 | 92.4 | 89.1 | inactive
CDX4 (GeneID 1046) | 2 | 0.0474 | 102 | 105 | inactive
CDX4 (GeneID 1046) | 3 | 0.0455 | 95.8 | 98.9 | inactive
CDX4 (GeneID 1046) | 4 | -0.233 | 71.2 | 60.6 | inactive
NR2C2AP (GeneID 126382) | 1 | -0.51 | 96.5 | 67.8 | inactive
NR2C2AP (GeneID 126382) | 2 | -0.555 | 85.7 | 58.3 | inactive
NR2C2AP (GeneID 126382) | 3 | -0.272 | 136 | 113 | inactive
NR2C2AP (GeneID 126382) | 4 | 0.172 | 54.1 | 60.9 | inactive
SLC6A20 (GeneID 54716) | 1 | -0.0472 | 80.7 | 78.1 | inactive
SLC6A20 (GeneID 54716) | 2 | -0.482 | 106 | 76 | inactive
SLC6A20 (GeneID 54716) | 3 | -0.0748 | 108 | 102 | inactive
SLC6A20 (GeneID 54716) | 4 | -0.198 | 50.1 | 43.6 | inactive
CYP27B1 (GeneID 1594) | 1 | -0.275 | 98.1 | 81.1 | inactive
CYP27B1 (GeneID 1594) | 2 | -0.125 | 120 | 110 | inactive
CYP27B1 (GeneID 1594) | 3 | -0.108 | 93.3 | 86.6 | inactive
CYP27B1 (GeneID 1594) | 4 | 0.367 | 58.8 | 75.8 | inactive
EDA2R (GeneID 60401) | 1 | 0.374 | 101 | 131 | inactive
EDA2R (GeneID 60401) | 2 | -0.178 | 83.8 | 74 | inactive
EDA2R (GeneID 60401) | 3 | 0.343 | 38 | 48.3 | inactive
EDA2R (GeneID 60401) | 4 | -0.139 | 127 | 115 | inactive
SLC25A25 (GeneID 114789) | 1 | -0.356 | 101 | 78.8 | inactive
SLC25A25 (GeneID 114789) | 2 | -0.242 | 53.4 | 45.2 | inactive
SLC25A25 (GeneID 114789) | 3 | -0.282 | 85 | 69.9 | inactive
SLC25A25 (GeneID 114789) | 4 | -0.0517 | 41.1 | 39.6 | inactive

In a second layout: 3 of the entries above.
| Target gene | reagent | log2 vehicle/camptothecin viability | viability with camptothecin (% of control) | viability without drug (% of control) | outcome |
| --- | --- | --- | --- | --- | --- |
| CDX4 (GeneID 1046) | 1 | -0.0518 | 92.4 | 89.1 | inactive |
| CDX4 (GeneID 1046) | 2 | 0.0474 | 102 | 105 | inactive |
| CDX4 (GeneID 1046) | 3 | 0.0455 | 95.8 | 98.9 | inactive |
